Data taken from the supplement of paper PMC10849652.
The list shows a part of the results.

The chains behind the UniProt entries cited, without tags or fusion partners. Where a name states a change or a piece, a line headed by the entry shows the natural chain unless it says otherwise.
UniProt P20338: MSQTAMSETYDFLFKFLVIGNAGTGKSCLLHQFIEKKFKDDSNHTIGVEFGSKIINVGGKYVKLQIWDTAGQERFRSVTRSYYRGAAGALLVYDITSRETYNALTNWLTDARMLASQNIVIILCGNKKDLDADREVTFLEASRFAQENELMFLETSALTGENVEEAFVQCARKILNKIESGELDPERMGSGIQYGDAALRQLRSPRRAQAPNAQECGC
UniProt Q15286: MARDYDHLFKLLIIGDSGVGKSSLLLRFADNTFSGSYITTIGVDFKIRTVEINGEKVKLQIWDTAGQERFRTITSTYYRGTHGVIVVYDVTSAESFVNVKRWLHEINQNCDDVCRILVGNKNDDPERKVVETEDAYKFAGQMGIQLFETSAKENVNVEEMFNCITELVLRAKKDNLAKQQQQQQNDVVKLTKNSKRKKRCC
UniProt Q2TAL8: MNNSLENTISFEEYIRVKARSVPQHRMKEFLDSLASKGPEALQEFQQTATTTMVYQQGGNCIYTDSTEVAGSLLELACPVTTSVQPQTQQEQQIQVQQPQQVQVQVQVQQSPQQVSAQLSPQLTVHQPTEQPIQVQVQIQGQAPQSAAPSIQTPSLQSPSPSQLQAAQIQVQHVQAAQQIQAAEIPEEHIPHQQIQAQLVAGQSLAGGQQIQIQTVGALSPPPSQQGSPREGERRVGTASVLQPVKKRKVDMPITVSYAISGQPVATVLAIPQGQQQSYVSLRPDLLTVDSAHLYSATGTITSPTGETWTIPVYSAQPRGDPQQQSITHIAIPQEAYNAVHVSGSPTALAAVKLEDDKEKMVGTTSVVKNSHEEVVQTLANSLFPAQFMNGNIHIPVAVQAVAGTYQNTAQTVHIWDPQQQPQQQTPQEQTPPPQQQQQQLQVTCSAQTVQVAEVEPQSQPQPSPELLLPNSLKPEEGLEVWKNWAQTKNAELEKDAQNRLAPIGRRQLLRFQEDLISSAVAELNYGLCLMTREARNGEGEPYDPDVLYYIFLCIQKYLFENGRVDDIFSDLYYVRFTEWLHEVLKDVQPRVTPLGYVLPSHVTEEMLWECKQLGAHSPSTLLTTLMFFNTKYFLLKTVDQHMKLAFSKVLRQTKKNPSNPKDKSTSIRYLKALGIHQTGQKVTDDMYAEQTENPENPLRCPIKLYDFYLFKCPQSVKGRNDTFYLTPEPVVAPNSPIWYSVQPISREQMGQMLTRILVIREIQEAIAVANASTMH
UniProt P47736: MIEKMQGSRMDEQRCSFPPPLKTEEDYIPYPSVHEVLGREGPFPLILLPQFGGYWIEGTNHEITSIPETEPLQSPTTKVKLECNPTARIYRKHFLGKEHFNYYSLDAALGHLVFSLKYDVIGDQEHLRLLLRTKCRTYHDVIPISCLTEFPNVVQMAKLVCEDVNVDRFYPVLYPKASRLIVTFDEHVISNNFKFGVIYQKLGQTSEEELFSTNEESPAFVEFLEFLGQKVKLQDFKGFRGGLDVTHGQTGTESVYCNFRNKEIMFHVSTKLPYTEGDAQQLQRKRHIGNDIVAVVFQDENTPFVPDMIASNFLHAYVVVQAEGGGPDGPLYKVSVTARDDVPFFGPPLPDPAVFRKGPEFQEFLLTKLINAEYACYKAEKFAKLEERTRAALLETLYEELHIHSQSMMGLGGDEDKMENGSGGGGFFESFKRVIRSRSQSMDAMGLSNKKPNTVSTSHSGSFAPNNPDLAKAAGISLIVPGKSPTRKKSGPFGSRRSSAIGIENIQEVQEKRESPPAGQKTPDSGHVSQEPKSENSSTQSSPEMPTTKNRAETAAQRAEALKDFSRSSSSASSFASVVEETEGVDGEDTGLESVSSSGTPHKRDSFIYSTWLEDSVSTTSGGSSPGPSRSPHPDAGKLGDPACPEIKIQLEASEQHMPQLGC
UniProt P54725: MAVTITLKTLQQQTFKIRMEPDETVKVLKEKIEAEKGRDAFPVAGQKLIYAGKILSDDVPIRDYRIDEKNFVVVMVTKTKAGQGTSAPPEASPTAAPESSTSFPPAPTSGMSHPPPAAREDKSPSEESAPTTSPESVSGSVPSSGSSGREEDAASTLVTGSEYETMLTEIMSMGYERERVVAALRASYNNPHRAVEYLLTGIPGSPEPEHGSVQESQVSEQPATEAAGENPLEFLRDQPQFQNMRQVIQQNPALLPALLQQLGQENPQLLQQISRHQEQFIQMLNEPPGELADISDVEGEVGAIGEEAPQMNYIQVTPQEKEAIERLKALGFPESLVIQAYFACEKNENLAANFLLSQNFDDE
UniProt O60671: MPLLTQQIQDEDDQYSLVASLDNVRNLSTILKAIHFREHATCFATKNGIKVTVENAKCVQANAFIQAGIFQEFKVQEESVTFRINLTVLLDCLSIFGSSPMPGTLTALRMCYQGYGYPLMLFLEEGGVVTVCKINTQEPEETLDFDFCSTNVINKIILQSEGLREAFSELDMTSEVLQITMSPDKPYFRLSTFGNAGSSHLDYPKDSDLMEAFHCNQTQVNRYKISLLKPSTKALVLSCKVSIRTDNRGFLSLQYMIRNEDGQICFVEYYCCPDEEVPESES
UniProt Q9ULZ3, whole entry, looked up: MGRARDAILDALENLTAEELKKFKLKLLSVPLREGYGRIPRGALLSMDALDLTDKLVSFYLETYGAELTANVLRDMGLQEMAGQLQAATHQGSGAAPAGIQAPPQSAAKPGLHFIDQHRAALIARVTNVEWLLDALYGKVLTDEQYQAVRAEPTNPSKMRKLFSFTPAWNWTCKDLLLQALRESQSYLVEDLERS
UniProt P61106, whole entry, looked up: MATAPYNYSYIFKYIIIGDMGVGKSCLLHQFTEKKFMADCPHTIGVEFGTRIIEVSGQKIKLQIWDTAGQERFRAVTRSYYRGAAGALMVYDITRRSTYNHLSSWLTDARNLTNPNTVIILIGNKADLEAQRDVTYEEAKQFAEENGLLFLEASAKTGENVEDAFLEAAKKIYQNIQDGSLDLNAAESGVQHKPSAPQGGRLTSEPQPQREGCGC
UniProt Q2PPJ7: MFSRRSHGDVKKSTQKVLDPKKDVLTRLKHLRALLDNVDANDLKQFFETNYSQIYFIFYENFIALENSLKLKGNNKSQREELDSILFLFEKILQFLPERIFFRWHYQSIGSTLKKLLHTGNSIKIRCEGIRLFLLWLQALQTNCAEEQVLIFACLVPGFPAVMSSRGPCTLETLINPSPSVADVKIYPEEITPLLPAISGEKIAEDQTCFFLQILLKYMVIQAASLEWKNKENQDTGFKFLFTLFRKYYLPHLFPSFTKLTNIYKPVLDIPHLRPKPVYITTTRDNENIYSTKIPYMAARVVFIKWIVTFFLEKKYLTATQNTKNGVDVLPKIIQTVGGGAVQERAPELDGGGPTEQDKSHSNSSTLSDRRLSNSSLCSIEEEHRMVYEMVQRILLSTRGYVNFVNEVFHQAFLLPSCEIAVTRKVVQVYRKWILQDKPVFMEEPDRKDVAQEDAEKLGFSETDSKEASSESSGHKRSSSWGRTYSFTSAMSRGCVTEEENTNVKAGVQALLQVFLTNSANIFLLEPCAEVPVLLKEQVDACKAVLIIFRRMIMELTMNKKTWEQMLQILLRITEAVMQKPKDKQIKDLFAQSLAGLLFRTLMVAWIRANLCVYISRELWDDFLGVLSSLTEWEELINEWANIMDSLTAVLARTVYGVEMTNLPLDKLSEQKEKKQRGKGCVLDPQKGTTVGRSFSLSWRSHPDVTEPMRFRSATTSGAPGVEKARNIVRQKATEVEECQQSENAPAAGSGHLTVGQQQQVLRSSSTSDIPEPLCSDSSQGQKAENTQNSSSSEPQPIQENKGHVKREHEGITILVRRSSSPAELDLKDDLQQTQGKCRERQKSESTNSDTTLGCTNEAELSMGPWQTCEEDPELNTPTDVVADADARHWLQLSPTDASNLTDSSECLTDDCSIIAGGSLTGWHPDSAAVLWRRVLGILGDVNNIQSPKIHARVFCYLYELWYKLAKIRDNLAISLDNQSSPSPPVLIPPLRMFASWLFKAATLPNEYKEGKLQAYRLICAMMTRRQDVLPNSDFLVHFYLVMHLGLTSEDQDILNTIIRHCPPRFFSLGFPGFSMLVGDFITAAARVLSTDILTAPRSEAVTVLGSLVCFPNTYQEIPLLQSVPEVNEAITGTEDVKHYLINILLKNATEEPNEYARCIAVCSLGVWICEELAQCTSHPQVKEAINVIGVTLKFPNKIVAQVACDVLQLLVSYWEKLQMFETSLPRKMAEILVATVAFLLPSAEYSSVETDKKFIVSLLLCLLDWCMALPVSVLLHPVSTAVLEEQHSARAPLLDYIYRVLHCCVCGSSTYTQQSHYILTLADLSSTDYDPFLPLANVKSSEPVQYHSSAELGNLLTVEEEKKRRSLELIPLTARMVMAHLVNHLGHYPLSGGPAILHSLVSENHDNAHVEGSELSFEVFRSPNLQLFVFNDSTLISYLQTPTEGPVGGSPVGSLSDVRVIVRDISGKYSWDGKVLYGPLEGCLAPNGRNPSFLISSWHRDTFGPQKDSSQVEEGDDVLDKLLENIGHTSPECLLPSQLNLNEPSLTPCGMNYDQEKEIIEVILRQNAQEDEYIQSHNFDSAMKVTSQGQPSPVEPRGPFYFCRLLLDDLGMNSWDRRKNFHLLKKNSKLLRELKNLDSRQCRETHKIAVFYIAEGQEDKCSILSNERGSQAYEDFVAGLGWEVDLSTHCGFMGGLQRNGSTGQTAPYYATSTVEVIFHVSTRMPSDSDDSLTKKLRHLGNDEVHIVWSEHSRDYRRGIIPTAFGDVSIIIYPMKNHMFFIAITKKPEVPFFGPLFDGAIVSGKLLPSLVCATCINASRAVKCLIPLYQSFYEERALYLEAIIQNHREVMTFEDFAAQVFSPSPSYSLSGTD
UniProt O75943: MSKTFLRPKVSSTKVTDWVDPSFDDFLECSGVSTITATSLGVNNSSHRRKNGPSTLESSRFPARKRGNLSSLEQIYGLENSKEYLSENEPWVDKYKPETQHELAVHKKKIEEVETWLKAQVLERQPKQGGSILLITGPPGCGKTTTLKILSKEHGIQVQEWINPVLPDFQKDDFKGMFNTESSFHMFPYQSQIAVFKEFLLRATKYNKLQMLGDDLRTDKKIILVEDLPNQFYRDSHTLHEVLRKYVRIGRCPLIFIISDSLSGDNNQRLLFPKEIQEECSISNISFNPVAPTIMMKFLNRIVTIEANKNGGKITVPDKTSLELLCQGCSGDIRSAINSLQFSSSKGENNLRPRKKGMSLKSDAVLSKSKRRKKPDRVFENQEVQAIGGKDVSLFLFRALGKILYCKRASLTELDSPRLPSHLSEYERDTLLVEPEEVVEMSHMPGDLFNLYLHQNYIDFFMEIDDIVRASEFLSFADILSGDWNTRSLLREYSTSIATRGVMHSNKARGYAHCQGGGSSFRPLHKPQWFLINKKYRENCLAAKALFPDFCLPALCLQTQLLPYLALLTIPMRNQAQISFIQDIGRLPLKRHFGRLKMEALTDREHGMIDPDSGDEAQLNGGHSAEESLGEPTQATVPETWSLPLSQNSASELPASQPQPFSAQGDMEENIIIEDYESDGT
UniProt Q4G0T1: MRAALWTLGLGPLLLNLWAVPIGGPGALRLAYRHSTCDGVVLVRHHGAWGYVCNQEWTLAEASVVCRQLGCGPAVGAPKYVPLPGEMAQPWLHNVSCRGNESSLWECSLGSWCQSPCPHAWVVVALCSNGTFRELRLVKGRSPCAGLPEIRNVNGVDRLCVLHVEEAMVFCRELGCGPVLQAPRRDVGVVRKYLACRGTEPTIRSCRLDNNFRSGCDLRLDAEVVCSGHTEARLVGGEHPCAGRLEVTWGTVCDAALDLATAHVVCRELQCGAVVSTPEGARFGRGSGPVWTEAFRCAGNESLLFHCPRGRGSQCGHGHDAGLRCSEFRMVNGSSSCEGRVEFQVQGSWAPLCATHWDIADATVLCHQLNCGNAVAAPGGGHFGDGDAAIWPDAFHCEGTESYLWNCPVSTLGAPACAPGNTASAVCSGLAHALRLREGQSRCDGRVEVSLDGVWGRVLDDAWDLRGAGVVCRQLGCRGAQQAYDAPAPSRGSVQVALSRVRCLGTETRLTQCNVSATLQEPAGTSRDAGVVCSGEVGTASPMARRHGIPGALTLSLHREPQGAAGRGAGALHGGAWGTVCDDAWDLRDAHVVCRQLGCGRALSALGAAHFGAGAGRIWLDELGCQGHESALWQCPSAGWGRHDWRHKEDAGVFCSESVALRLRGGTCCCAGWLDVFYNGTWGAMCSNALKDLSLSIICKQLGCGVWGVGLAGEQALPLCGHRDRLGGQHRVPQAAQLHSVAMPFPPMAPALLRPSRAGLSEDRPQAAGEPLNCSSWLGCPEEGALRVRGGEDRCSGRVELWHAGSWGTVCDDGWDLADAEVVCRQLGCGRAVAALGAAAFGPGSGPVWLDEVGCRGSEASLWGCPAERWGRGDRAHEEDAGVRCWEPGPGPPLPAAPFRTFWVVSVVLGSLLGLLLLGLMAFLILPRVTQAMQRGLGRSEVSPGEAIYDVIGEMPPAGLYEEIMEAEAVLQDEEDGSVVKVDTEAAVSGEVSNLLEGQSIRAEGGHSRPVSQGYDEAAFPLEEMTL

Columns and labels:
Assay in all cases: log2 fold change, soluble protein after heating vs DMSO (PISA); higher = thermal stabilisation; K562 lysate, 10 uM; active = over 0.2 and 3.5 SD of the protein, either way, in both replicates (recomputed)
[1] = compound: NCC(=O)Nc1ccc(-n2nc(C(F)(F)F)cc2-c2ccc3c(ccc4ccccc43)c2)cc1
Summary of the method: (§1)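 Log-two fold change in thermal stability relative to solvent controls is reported from duplicates. For each sample, crude K562 extract from dounce-homogenised pellets in PBS pH 7.4 with 1 mM MgCl2, at 1 mg/mL protein, was treated with 10 μM compound for 30 min. Aliquots heated for 3 min across 48°C-58°C were pooled, brought to 0.5% NP-40 at 4°C and cleared at 21,000xg for 90 min. The supernatant was quantified by TMTpro 16plex LC-MS/MS with channel sums equalised.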

vorinostat = compound: O=C(CCCCCCC(=O)Nc1ccccc1)NO [vorinostat]
Summary of the method: as §1

silmitasertib = compound: O=C(O)c1ccc2c(c1)nc(Nc1cccc(Cl)c1)c1ccncc12 [silmitasertib]
Summary of the method: as §1

[2] = compound: O=C1NC(=O)C(c2cnc3ccccn23)=C1c1cn2c3c(cc(F)cc13)CN(C(=O)N1CCCCC1)CC2
Summary of the method: as §1

entospletinib = compound: c1cn2cc(-c3ccc4cn[nH]c4c3)nc(Nc3ccc(N4CCOCC4)cc3)c2n1 [entospletinib]
Summary of the method: as §1

| Target | log2 fold change [1] | log2 fold change (vorinostat) | log2 fold change (silmitasertib) | log2 fold change [2] | log2 fold change (entospletinib) |
| --- | --- | --- | --- | --- | --- |
| RAB4A (UniProt P20338) | inactive: -0.045 | inactive: 0.138 | inactive: -0.007 | inactive: -0.071 | inactive: 0 |
| RAD51 (UniProt Q06609) | inactive: 0.21 | inactive: -0.151 | inactive: 0.059 | inactive: 0.011 | inactive: -0.028 |
| RAB35 (UniProt Q15286) | inactive: 0.018 | inactive: 0.035 | inactive: 0.005 | inactive: -0.045 | inactive: -0.077 |
| QTRT1 (UniProt Q9BXR0) | inactive: 0.026 | inactive: 0.094 | inactive: -0.004 | inactive: 0.004 | inactive: -0.013 |
| RALGPS2 (UniProt Q86X27) | inactive: 0.103 | inactive: -0.369 | inactive: 0.037 | inactive: 0.069 | inactive: 0.041 |
| QRICH1 (UniProt Q2TAL8) | inactive: -0.016 | inactive: -0.21 | inactive: 0.029 | inactive: -0.011 | inactive: 0.003 |
| RAB9A (UniProt P51151) | inactive: -0.001 | inactive: 0.146 | inactive: -0.006 | inactive: -0.02 | inactive: -0.008 |
| RAP1GAP isoform 4 (UniProt P47736) | inactive: -0.058 | active: -0.419 | inactive: -0.035 | inactive: 0.022 | inactive: -0.012 |
| RABL3 (UniProt Q5HYI8) | inactive: 0.031 | inactive: -0.126 | inactive: 0.445 | inactive: -0.039 | inactive: 0 |
| RAB6B (UniProt Q9NRW1) | inactive: -0.038 | inactive: 0.119 | inactive: -0.012 | inactive: 0.01 | inactive: -0.023 |
| RAB6A isoform 4 (UniProt P20340) | inactive: 0.118 | inactive: 0.154 | inactive: -0.027 | inactive: -0.022 | inactive: -0.029 |
| RAD23A (UniProt P54725) | inactive: 0.008 | inactive: 0.062 | inactive: -0.009 | inactive: -0.017 | inactive: -0.03 |
| RAB5C isoform 2 (UniProt P51148) | inactive: 0.027 | inactive: 0.057 | inactive: -0.017 | inactive: 0.01 | inactive: -0.039 |
| RAD21 (UniProt O60216) | inactive: -0.06 | inactive: 0.038 | inactive: -0.002 | inactive: -0.019 | inactive: -0.003 |
| QPRT (UniProt Q15274) | inactive: -0.064 | inactive: 0.12 | inactive: -0.016 | inactive: 0.032 | inactive: 0.001 |
| R3HCC1 (UniProt Q9Y3T6) | inactive: 0.045 | active: -0.259 | inactive: -0.036 | inactive: -0.002 | inactive: 0.067 |
| RAB18 isoform 2 (UniProt Q9NP72) | inactive: -0.013 | inactive: 0.111 | inactive: -0.048 | inactive: 0.032 | inactive: -0.013 |
| RAB30 (UniProt Q15771) | inactive: 0.009 | inactive: 0.002 | inactive: 0.109 | inactive: -0.099 | inactive: -0.061 |
| QRSL1 (UniProt Q9H0R6) | inactive: 0.066 | active: -0.308 | inactive: 0.051 | inactive: 0.028 | inactive: 0.019 |
| RAB3IL1 (UniProt Q8TBN0) | inactive: -0.006 | active: -0.268 | inactive: 0.025 | inactive: 0.07 | inactive: 0.015 |
| RAD1 (UniProt O60671) | inactive: 0.065 | inactive: -0.075 | inactive: -0.011 | inactive: 0 | inactive: -0.049 |
| QTRT2 isoform 4 (UniProt Q9H974) | inactive: 0.004 | inactive: 0.079 | inactive: -0.011 | inactive: -0.007 | inactive: 0.022 |
| PYGL (UniProt P06737) | inactive: -0.013 | inactive: 0.05 | inactive: 0.184 | inactive: 0 | inactive: -0.022 |
| RAB3IL1 (UniProt E9PK89) | inactive: 0.016 | active: -0.614 | inactive: 0.011 | inactive: 0.079 | inactive: -0.158 |

| Target | log2 fold change [1] | log2 fold change (vorinostat) | log2 fold change (silmitasertib) | log2 fold change [2] | log2 fold change (entospletinib) |
| --- | --- | --- | --- | --- | --- |
| RAB3B (UniProt P20337) | – | – | – | inactive: 0.072 | – |
| RAD23A isoform 3 (UniProt P54725) | – | inactive: 0.46 | inactive: -0.084 | – | – |
| PYCARD isoform 2 (UniProt Q9ULZ3) | – | inactive: 0.106 | inactive: -0.014 | inactive: 0.101 | – |
| RALGAPB isoform 3 (UniProt Q86X10) | – | – | – | – | inactive: -0.045 |
| PYHIN1 (UniProt Q6K0P9) | – | – | – | inactive: 0.218 | – |
| RAI1 (UniProt Q7Z5J4) | – | – | – | inactive: 0.019 | inactive: 0.091 |
| RAB14 (UniProt P61106) | inactive: 0.023 | inactive: 0.093 | inactive: -0.025 | inactive: 0.042 | inactive: -0.029 |
| QSOX1 (UniProt O00391) | – | inactive: 0.139 | inactive: 0.005 | inactive: -0.054 | inactive: -0.029 |
| RALGAPA2 (UniProt Q2PPJ7) | – | – | – | inactive: -0.011 | – |
| RAD17 (UniProt O75943) | inactive: -0.044 | – | – | inactive: -0.052 | inactive: -0.039 |
| RAB11FIP4 (UniProt Q86YS3) | inactive: 0.035 | inactive: 0.111 | inactive: -0.082 | – | inactive: 0.019 |
| RAB33B (UniProt Q9H082) | inactive: 0.074 | inactive: 0.019 | inactive: -0.061 | – | inactive: -0.066 |
| RAD51D (UniProt O75771) | inactive: 0.012 | inactive: -0.064 | inactive: -0.075 | – | inactive: -0.017 |
| NA (UniProt Q4G0T1) | – | inactive: -0.027 | inactive: 0.092 | inactive: -0.036 | – |
| RAB11FIP5, A0A1B0GTL5 | – | inactive: 0 | inactive: -0.134 | inactive: -0.293 | – |
| PXN isoform 3 (UniProt P49023) | inactive: -0.047 | inactive: 0.001 | inactive: -0.023 | inactive: 0.018 | inactive: 0.043 |
| RANGRF (UniProt Q9HD47) | – | inactive: -0.006 | inactive: 0.055 | inactive: 0.003 | – |
| RAB11FIP3 isoform 3 (UniProt O75154) | – | inactive: 0.002 | inactive: -0.329 | – | inactive: 0 |
| RAB21 (UniProt Q9UL25) | inactive: 0.017 | inactive: -0.235 | inactive: -0.021 | inactive: 0.029 | inactive: 0.02 |
| RAB29 (UniProt O14966) | – | inactive: -0.199 | inactive: 0.111 | – | – |
| RANBP3 isoform 2 (UniProt Q9H6Z4) | inactive: 0.203 | – | – | inactive: 0.006 | inactive: -0.016 |
| R3HDM2 (UniProt B5MCU0) | – | inactive: 0.012 | inactive: -0.05 | inactive: -0.049 | inactive: -0.209 |
| RAD54B (UniProt Q9Y620) | inactive: -0.142 | – | – | inactive: -0.004 | inactive: -0.025 |
| RAD54L (UniProt Q92698) | – | active: -1.06 | inactive: 0.065 | – | – |
